19 molecules from paper PMC10163288 can be followed below.

To fix the notation:
B1: il2ra_site1_2b5i_normal_mot_HHH_b2_04910_000000118_0001_1_19_H_._HHH_b2_07787_0001_0000300030_0000001_0 (protein)
chain: SSSSDEESREARELFHRADELDKRGNPEEAEEVLEEALELARRAGSPQLAKMIESALRQLGSSSS
B2: il2ra_site2_3nfp_normal_mot_HHH_b2_07129_000000128_0001_19_36_H_._HHH_b1_06785_0001_0000200014_0000001_0 (protein)
chain: SSSSSVEERVEELIEQIEELIRRGDPEEARRLLREAIELAFRNRNHELFAKLADLSLLLWLSSSS
B3: il2ra_site2_3nfp_sap_19_mot_HHH_b2_08245_000000272_0001_41_55_H_._HHH_b1_00786_0001_0000100004_0000001_1_0001 (protein)
chain: SSSSSDERRRAAELATEDAKHVPDPERARLALKLALAHAAVANDEELAEEVERLLEELNSSSSSS
B4: il2ra_site2_3nfp_normal_mot_HHH_b2_04230_000000235_0001_39_52_H_._HHH_b2_01503_0001_0000100002_0000001_0 (protein)
chain: SSSSSEEVEKLLEEARELLEKGNPEEARKVLSRAAHLAYQLGNAELYFAVAELAHKVYQHSSSSS
B5: il2ra_site1_3nfp_normal_mot_1cd86ef9f1587ae5d14d35bbbd8e7f1d_0001_1_000000087_0001_34_49_H_._HHH_b2_02475_af2_0001_0000500017_0000001_0_af2pred_0001_1_af2pred_s … (protein)
chain: SSSDEESEELLEEAKEILQRLLEEGDYQEASKAAEELLRQLRELGDHEASEELLEFAKRVSSSSS
B6: il2ra_site1_2b5i_normal_mot_HHH_b2_04910_000000118_0001_1_19_H_._HHH_b1_07304_0001_0000400039_0000001_0_af2pred_0001_af2pred (protein)
chain: SSSSTDVARRLFELIERANRLFRNGNPEEAEQALEEAEELAEENNNKNALRSIRIMLEQIRSSSS
B7: il2ra_site2_3nfp_normal_mot_HHH_b1_06589_000000230_0001_37_50_H_._HHH_b2_04755_0001_0000600040_0000001_0 (protein)
chain: SSSSDLEEEVEELLERAKKLYEEGNPEEVRELLAEATHLAYENRNSELYMLVAEVAFELRGSSSS
B8: il2ra_site2_2erj_normal_mot_6ec3e94b46d95805cdcdc10c0c108f03_0001_af2_000000040_0001_36_50_H_._HHH_b1_06878_af2_0001_0000200008_0000001_0 (protein)
chain: SSSSSEWLRRLYELANRALHLHANGNPEEAREVLEEARELAEELNSESVRELVEELLRLLSSSSS
B9: il2ra_site2_3nfp_normal_mot_HHH_b1_02676_000000052_0001_38_56_H_._HHH_b2_02278_0001_0000200033_0000001_1 (protein)
chain: SSSSNEEELLEILLELAELLLQRASEEEREELEELIEELKEKGDPRVAHRLYELVARIYLSSSSS
B10: il2ra_site2_3nfp_normal_mot_HHH_b2_05281_000000198_0001_39_56_H_._HHH_b1_03596_0001_0000100006_0000001_0 (protein)
chain: SSSSDEEVEELIREAEELIREGNPEEAKKVLQEATHLAYELRDPRLFFLLAELAYLLEQLSSSSS
B11: il2ra_site2_2erj_sap_27_mot_HHH_b1_04373_af2_000000118_0001_18_33_H_._HHH_b2_03131_0001_0000800063_0000001_0_0001 (protein)
chain: SLEERVEEVAEKLGLPPEVIRKIEELLEELRKEGLPPEEILSILFEEAYEEGDLEVAAVVIDLVQ
B12: il2ra_site1_3nfp_normal_mot_HHH_b1_06045_af2_000000189_0001_3_17_H_._HHH_b1_06127_0001_0000100001_0000001_0_af2pred_0001_af2pred_1 (protein)
chain: SSSSDEESERVLEEAEKLIERLLEEGDPHEAAKVAEEYLRILAELGDPEAKERLLRFALKLSSSS
B13: il2ra_site2_3nfp_normal_mot_HHH_b2_01155_000000159_0001_38_52_H_._HHH_b2_04755_af2_0001_0000100004_0000001_0 (protein)
chain: SSSSDLEERVQELLEEAERLYEEGNPEEVRELLAEATRLAFENRDSRLFMLVAEVAYELYGSSSS
B14: il2ra_site2_3nfp_sap_18_mot_HHH_b1_05437_000000005_0001_40_57_H_._HHH_b1_02393_0001_0000100001_0000001_0_0001_af2pred_0001_af2pred (protein)
chain: SSSSSSEEEKEVEELIEEARKIEDPEEAEEVLHRAATIARELNDTELAQRIAELILKVGSSSSSS
B15: il2ra_site1_3nfp_normal_mot_2d25717a5c0121ea846597d88a9db610_0001_1_af2_000000202_0001_15_29_H_._HHH_b1_01499_0001_0000400042_0000001_1 (protein)
chain: SSSSSSDEDRRIFELLKEANKITDPEEIRELLEEMLELAEERGNEKLFQELRKALEFYSSSSSSS
B16: il2ra_site1_3nfp_sap_17_mot_HHH_b2_05589_af2_000000060_0001_42_57_H_._HHH_b1_07126_af2_0001_0001100021_0000001_1_0001 (protein)
chain: SSSSDEAREAAELVAELAKKKGDWEAAQAWWEVAHRLAKGELSREEAAEILEELAERLKSSSSSS
B17: il2ra_site1_1z92_normal_mot_00a0fa73c9dbd8f1f8571bd9de0225d9_0001_af2_000000011_0001_1_12_H_._ems_ferrM_5132_0002_af2_0001_0000100002_0000001_0_af2pred_0001_af2 … (protein)
chain: SPEYTVEIHGANPEAVRRFAEALGAEVEENGETLTIEVDDPKKAELISKLAEAARVEFELEKSES
B18: il2ra_site1_1z92_sap_15_mot_HHH_b2_01902_af2_000000252_0001_25_40_H_._HHH_b1_08269_0001_0000100004_0000001_1_0001 (protein)
chain: SSSSSRTKEWLKELAESLFRSYRAKGDPKIRELLEFLLRQARLLGNEEAEELIEKLLEELSSSSS
B19: il2ra_site2_2erj_sap_15_mot_HHH_b1_04373_af2_000000118_0001_18_33_H_._df72e6d168b63c4d22c4171a8daa05df_0001_0001_0000300026_0000001_0_0001 (protein)
chain: SSSSSEELRELYELANELMRAVEEGDEEKVEEIFREIEELARRAQSDNAAEIAEHLLRLFNSSSS

The other results are listed elsewhere or left out.

The assay deals with il2ra, P01589. The assay is described as follows: yeast display titration.
On to B1, for which the “apparent Kd” value was “inactive: no binding seen”. Turning to B2, the “apparent Kd” value is “inactive: no binding seen”. To B3 belongs “inactive: no binding seen”.

Consider B4, for which the “apparent Kd” value is “inactive: no binding seen”. Then B5, with “inactive: no binding seen”; and B6, with “inactive: no binding seen”; and B7, with “inactive: no binding seen”. Turning to B8, the “apparent Kd” value is “inactive: no binding seen”. For the molecule B9, the “apparent Kd” value is “inactive: no binding seen”. In the case of B10, the “apparent Kd” value was “inactive: no binding seen”. Regarding B11, the “apparent Kd” value was “inactive: no binding seen”.

B12: the “apparent Kd” value was “inactive: no binding seen”.

Turning to B13, the “apparent Kd” value is “inactive: no binding seen”. Then B14, with “inactive: no binding seen”; and B15, with “inactive: no binding seen”.

Turning to B16, the “apparent Kd” value was “inactive: no binding seen”.

Consider B17, for which the “apparent Kd” value is “inactive: no binding seen”.

Consider B18, for which the “apparent Kd” value is “inactive: no binding seen”. For B19, the “apparent Kd” value was “inactive: no binding seen”.
